# The list shows a part of the results.
# B1: PEB3 (Campylobacter jejuni), Q0PBL7 (protein)
# chain: MKKIITLFGACALAFSMANADVNLYGPGGPHTALKDIANKYSEKTGVKVNVNFGPQATWFEKAKKDADILFGASDQSALAIASDFGKDFNVSKIKPLYFREAIILTQKGNPLKIKGLKDLANKKVRIVVPEGAGKSNTSGTGVWEDMIGRTQDIKTIQNFRNNIVAFVPNSGSARKLFAQDQADAWITWIDWSKSNPDIGTAVAIEKDLVVYRTFNVIAKEGASKETQDFIAYLSSKEAKEIFKKYGWRE
# Assays:
# Assay in all cases: glycan array binding signal (z-score within array); higher = stronger binding
# Conditions in all cases: glycan notation: IUPAC condensed, linker removed
# [1] = biological target: Neu5Ac(a2-3)Gal(b1-4)[Fuc(a1-3)]GlcNAc(b1-3)Gal
# How it was run: (§1)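 Arrays were curated from the Consortium for Functional Glycomics database, 3228 in total, and kept only where the protein sequence was available. Binding is expressed as a within-array Z-score. This score was averaged across arrays of the same protein sequence at different concentrations or buffers and across linkers, and negative values can be read as non-binding.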
# [2] = biological target: Neu5Ac(a2-3)Gal(b1-4)[Fuc(a1-3)]GlcNAc(b1-3)Gal(b1-4)GlcNAc
# How it was run: as §1
# [3] = biological target: Neu5Ac(a2-3)Gal(b1-4)[Fuc(a1-3)]GlcNAc(b1-3)Gal(b1-4)[Fuc(a1-3)]GlcNAc(b1-3)Gal(b1-4)[Fuc(a1-3)]GlcNAc
# How it was run: as §1
# [4] = biological target: Neu5Ac(a2-3)Gal(b1-4)[Fuc(a1-3)]GlcNAc(b1-3)GalNAc
# How it was run: as §1
# [5] = biological target: Neu5Ac(a2-3)Gal(b1-4)[Fuc(a1-3)]GlcNAc(b1-6)[Gal(b1-3)]GalNAc
# How it was run: as §1
# [6] = biological target: Neu5Ac(a2-3)Gal(b1-4)[Fuc(a1-3)]GlcNAc(b1-6)[Neu5Ac(a2-3)Gal(b1-3)]GalNAc
# How it was run: as §1
# [7] = biological target: Neu5Ac(a2-3)Gal(b1-4)[Fuc(a1-3)]GlcNAc6S
# How it was run: as §1
# [8] = biological target: Neu5Ac(a2-3)Gal6S(b1-4)GlcNAc
# How it was run: as §1
# [9] = biological target: Neu5Ac(a2-3)Gal6S(b1-4)[Fuc(a1-3)]GlcNAc
# How it was run: as §1
# Neu5Ac(a2-3)GalNAc = biological target: Neu5Ac(a2-3)GalNAc
# How it was run: as §1
# [10] = biological target: Neu5Ac(a2-3)GalNAc(b1-4)GlcNAc
# How it was run: as §1
# [11] = biological target: Neu5Ac(a2-3)[GalNAc(b1-4)]Gal(b1-4)Glc
# How it was run: as §1
# [12] = biological target: Neu5Ac(a2-3)[GalNAc(b1-4)]Gal(b1-4)GlcNAc
# How it was run: as §1
# [13] = biological target: Neu5Ac(a2-3)[GalNAc(b1-4)]Gal(b1-4)GlcNAc(b1-3)GalNAc
# How it was run: as §1
# [14] = biological target: Neu5Ac(a2-3)[Neu5Ac(a2-6)]GalNAc
# How it was run: as §1
# Neu5Ac(a2-6)Gal = biological target: Neu5Ac(a2-6)Gal
# How it was run: as §1
# Neu5Ac(a2-6)Gal(b1-4)Glc = biological target: Neu5Ac(a2-6)Gal(b1-4)Glc
# How it was run: as §1
# [15] = biological target: Neu5Ac(a2-6)Gal(b1-4)GlcNAc
# How it was run: as §1
# [16] = biological target: Neu5Ac(a2-6)Gal(b1-4)GlcNAc(b1-2)Man(a1-3)Man(b1-4)GlcNAc(b1-4)GlcNAc
# How it was run: as §1
# [17] = biological target: Neu5Ac(a2-6)Gal(b1-4)GlcNAc(b1-2)Man(a1-3)[Gal(b1-4)GlcNAc(b1-2)Man(a1-6)]Man(b1-4)GlcNAc(b1-4)GlcNAc
# How it was run: as §1
# [18] = biological target: Neu5Ac(a2-6)Gal(b1-4)GlcNAc(b1-2)Man(a1-3)[GlcNAc(b1-2)Man(a1-6)]Man(b1-4)GlcNAc(b1-4)GlcNAc
# How it was run: as §1
# [19] = biological target: Neu5Ac(a2-6)Gal(b1-4)GlcNAc(b1-2)Man(a1-3)[GlcNAc(b1-2)Man(b1-4)GlcNAc(b1-2)Man(a1-6)]Man(b1-4)GlcNAc(b1-4)GlcNAc
# How it was run: as §1
# [20] = biological target: Neu5Ac(a2-6)Gal(b1-4)GlcNAc(b1-2)Man(a1-3)[Man(a1-6)]Man(b1-4)GlcNAc(b1-4)GlcNAc
# How it was run: as §1
# [21] = biological target: Neu5Ac(a2-6)Gal(b1-4)GlcNAc(b1-2)Man(a1-3)[Neu5Ac(a2-6)Gal(b1-4)GlcNAc(b1-2)Man(a1-6)]Man(b1-4)GlcNAc(b1-4)GlcNAc
# How it was run: as §1
# [22] = biological target: Neu5Ac(a2-6)Gal(b1-4)GlcNAc(b1-2)Man(a1-6)Man(b1-4)GlcNAc(b1-4)GlcNAc
# How it was run: as §1
# [23] = biological target: Neu5Ac(a2-6)Gal(b1-4)GlcNAc(b1-2)Man(a1-6)[Gal(b1-4)GlcNAc(b1-2)Man(a1-3)]Man(b1-4)GlcNAc(b1-4)GlcNAc
# How it was run: as §1
# [24] = biological target: Neu5Ac(a2-6)Gal(b1-4)GlcNAc(b1-2)Man(a1-6)[GlcNAc(b1-2)Man(a1-3)]Man(b1-4)GlcNAc(b1-4)GlcNAc
# How it was run: as §1
# [25] = biological target: Neu5Ac(a2-6)Gal(b1-4)GlcNAc(b1-2)Man(a1-6)[Man(a1-3)]Man(b1-4)GlcNAc(b1-4)GlcNAc
# How it was run: as §1
# [26] = biological target: Neu5Ac(a2-6)Gal(b1-4)GlcNAc(b1-3)Gal(b1-3)GlcNAc
# How it was run: as §1
# [27] = biological target: Neu5Ac(a2-6)Gal(b1-4)GlcNAc(b1-3)Gal(b1-4)GlcNAc
# How it was run: as §1
# [28] = biological target: Neu5Ac(a2-6)Gal(b1-4)GlcNAc(b1-3)Gal(b1-4)GlcNAc(b1-3)Gal(b1-4)GlcNAc
# How it was run: as §1
# [29] = biological target: Neu5Ac(a2-6)Gal(b1-4)GlcNAc(b1-3)Gal(b1-4)[Fuc(a1-3)]GlcNAc(b1-3)Gal(b1-4)[Fuc(a1-3)]GlcNAc
# How it was run: as §1
# [30] = biological target: Neu5Ac(a2-6)Gal(b1-4)GlcNAc(b1-3)GalNAc
# How it was run: as §1
# [31] = biological target: Neu5Ac(a2-6)Gal(b1-4)GlcNAc6S
# How it was run: as §1
# Neu5Ac(a2-6)GalNAc = biological target: Neu5Ac(a2-6)GalNAc
# How it was run: as §1
# [32] = biological target: Neu5Ac(a2-6)GalNAc(b1-4)GlcNAc
# How it was run: as §1
# [33] = biological target: Neu5Ac(a2-6)GlcNAc(b1-4)GlcNAc
# How it was run: as §1
# [34] = biological target: Neu5Ac(a2-6)GlcNAc(b1-4)GlcNAc(b1-4)GlcNAc
# How it was run: as §1
binder,measurement,setting,value
B1,glycan array binding signal (z-score),[1],-0.437
same,glycan array binding signal (z-score),[2],0.992
same,glycan array binding signal (z-score),[3],-0.931
same,glycan array binding signal (z-score),[4],4.53
same,glycan array binding signal (z-score),[5],-1.17
same,glycan array binding signal (z-score),[6],1.03
same,glycan array binding signal (z-score),[7],-1.46
same,glycan array binding signal (z-score),[8],-0.268
same,glycan array binding signal (z-score),[9],-0.317
same,glycan array binding signal (z-score),Neu5Ac(a2-3)GalNAc,-1.08
same,glycan array binding signal (z-score),[10],-0.617
same,glycan array binding signal (z-score),[11],-0.446
same,glycan array binding signal (z-score),[12],-0.219
same,glycan array binding signal (z-score),[13],0.433
same,glycan array binding signal (z-score),[14],-1.9
same,glycan array binding signal (z-score),Neu5Ac(a2-6)Gal,1.53
same,glycan array binding signal (z-score),Neu5Ac(a2-6)Gal(b1-4)Glc,-0.626
same,glycan array binding signal (z-score),[15],-0.802
same,glycan array binding signal (z-score),[16],1.61
same,glycan array binding signal (z-score),[17],0.395
same,glycan array binding signal (z-score),[18],-0.555
same,glycan array binding signal (z-score),[19],0.609
same,glycan array binding signal (z-score),[20],0.136
same,glycan array binding signal (z-score),[21],0.39
same,glycan array binding signal (z-score),[22],-0.233
same,glycan array binding signal (z-score),[23],-0.581
same,glycan array binding signal (z-score),[24],-0.237
same,glycan array binding signal (z-score),[25],1.2
same,glycan array binding signal (z-score),[26],-0.446
same,glycan array binding signal (z-score),[27],-0.164
same,glycan array binding signal (z-score),[28],0.854
same,glycan array binding signal (z-score),[29],0.355
same,glycan array binding signal (z-score),[30],-0.21
same,glycan array binding signal (z-score),[31],-0.285
same,glycan array binding signal (z-score),Neu5Ac(a2-6)GalNAc,-0.895
same,glycan array binding signal (z-score),[32],0.74
same,glycan array binding signal (z-score),[33],-0.895
same,glycan array binding signal (z-score),[34],-0.286

# Another view of some results above.
binder	measurement	setting	value
B1	glycan array binding signal (z-score)	[13]	0.433
same	glycan array binding signal (z-score)	[18]	-0.555
same	glycan array binding signal (z-score)	[29]	0.355

# From the supplement of paper PMC8728848
